Library screening results

Sequences of proteins named here, by UniProt entry; tags and fusion partners are left off.
UniProt E9BF75, entry or part of it: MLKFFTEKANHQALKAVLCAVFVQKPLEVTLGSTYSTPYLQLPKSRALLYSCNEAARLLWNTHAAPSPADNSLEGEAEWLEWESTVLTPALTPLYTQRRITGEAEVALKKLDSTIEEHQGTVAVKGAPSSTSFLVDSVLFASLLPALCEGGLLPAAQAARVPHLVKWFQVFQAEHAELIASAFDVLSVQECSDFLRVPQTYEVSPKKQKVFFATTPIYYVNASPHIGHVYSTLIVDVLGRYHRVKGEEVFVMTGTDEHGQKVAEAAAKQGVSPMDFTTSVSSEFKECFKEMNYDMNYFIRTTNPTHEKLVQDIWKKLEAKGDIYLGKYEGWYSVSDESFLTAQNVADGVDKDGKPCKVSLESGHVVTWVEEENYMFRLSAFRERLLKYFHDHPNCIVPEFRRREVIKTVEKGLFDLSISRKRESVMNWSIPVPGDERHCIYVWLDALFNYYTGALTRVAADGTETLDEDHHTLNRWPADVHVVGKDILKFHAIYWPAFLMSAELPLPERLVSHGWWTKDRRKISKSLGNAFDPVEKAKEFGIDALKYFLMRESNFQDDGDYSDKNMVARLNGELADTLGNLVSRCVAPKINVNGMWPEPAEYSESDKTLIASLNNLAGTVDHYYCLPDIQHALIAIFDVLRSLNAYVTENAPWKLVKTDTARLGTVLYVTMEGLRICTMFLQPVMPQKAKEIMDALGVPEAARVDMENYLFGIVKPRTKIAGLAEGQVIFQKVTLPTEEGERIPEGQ

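Primary screen of methionyl-tRNA synthetase; the read-out is not stated. Target: Methionyl-tRNA synthetase (putative), Leishmania donovani (UniProt E9BF75). The test concentration is not given. Values are per cent inhibition. Of about 68,000 compounds tested this way, about 24 (0.035%) reached 50% or more in at least one test.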

All values are in %. The record does not define 0% and 100%; most values in the screen are far below 50% and negative numbers occur (in some assays of this library far below -100). This is an unselected part of the compounds tested.

| # | compound | inhibition |
|---|---|---|
| 1 | `Cc1nn(C)c(Cl)c1C1CCCN1C(=O)c1cnc[nH]1` (stereo not shown) | 13.68 |
| 2 | `COCc1nc(C(=O)NS(=O)(=O)c2ccc(OC)c(C)c2)cs1` | 15.46 |
| 3 | `O=C(c1ccnc(CC2COc3ccccc3C2)c1)N1CCCC1` (stereo not shown) | 2.477 |
| 4 | `COCCN(Cc1ccc(F)cc1Cl)C(=O)c1cnn(C)c1C` | -1.087 |
| 5 | `COCc1ccc(C(=O)N2CCc3c(ncnc3N3CCOCC3)C2)o1` | 14.61 |
| 6 | `CC1CN(C2CCN(Cc3nccn3CC(F)(F)F)CC2)CCO1` (stereo not shown) | 10.07 |
| 7 | `CC(C)CNC(=O)CNC(=O)Nc1cccc(Cl)c1-n1cccn1` | 9.922 |
| 8 | `O=C(Cc1ccccn1)N1CCC2(CC1)CN(c1ncccn1)CCO2` | 13.74 |
| 9 | `Cn1cc(NC(=O)Nc2ccccn2)cc(Cl)c1=O` | 4.359 |
| 10 | `Cc1nc(CN2C(=O)COC3(CCN(Cc4ccsc4)CC3)C2C)cs1` (stereo not shown) | 9.202 |
| 11 | `CCC(CO)N(Cc1ccsc1)Cc1c(C)nn(C)c1Cl` (stereo not shown) | 18.05 |
| 12 | `Cc1ccc(CS(=O)(=O)NCc2ccco2)cc1` | 5.618 |
| 13 | `Cc1nnc([C@@H]2CC[C@@H]3[C@@H](CCN3CC3CCOCC3)O2)o1` | 11.68 |
| 14 | `CCCc1nnc(N2CCC(C3CCN(C)CC3)CC2)o1` | 5.575 |
| 15 | `Cc1cccc(N2CC3(CCN(S(=O)(=O)C4CC4)C3)C2)n1` | 5.226 |
| 16 | `Cc1cccc(NC(=O)CN(C)C(=O)c2scnc2C)n1` | 9.577 |
| 17 | `CC(c1cccnc1)N(C)C(=O)NCCOc1ccc(C#N)cc1` (stereo not shown) | 12.91 |
| 18 | `CCc1cc(-c2nccn2-c2ccccc2CN2CCOCC2)on1` | 10.84 |
| 19 | `CSc1ccc(-n2ccnc2-c2cc3n(n2)CCNC3)cc1` | 7.483 |
| 20 | `COc1ccc(CN2CCCC(Nc3cccc(F)c3)C2)cc1O` (stereo not shown) | 20.45 |
| 21 | `CC(C)N(C)Cc1ncn2c1CN(C(=O)C1CCCO1)CCC2` (stereo not shown) | 13.49 |
| 22 | `Cc1ccc(S(=O)(=O)N2C[C@H]3C[C@H](NC(=O)c4ccnn4C)[C@H]3C2)cc1` | 14.04 |
| 23 | `Cn1nnnc1SCCNC(=O)C1CCN(C(=O)C2CC2)CC1` | -2.978 |
| 24 | `CN1CCOC(C)(C(=O)N2CCN(C3CCCC3)CC2)C1` (stereo not shown) | 9.032 |
| 25 | `O=C(NC1CCC1)[C@@H]1CCO[C@@H]2CCN(C3CCCC3)C[C@@H]21` | 14.81 |
| 26 | `COc1ccccc1CC1CCN(C(=O)CCN2CCOC2=O)CC1` | 9.777 |
| 27 | `CC(C)(CNC(=O)c1ccco1)CNC(=O)c1ccco1` | 14.2 |
| 28 | `COc1c(C2CCCN2C(=O)c2ccc(C#N)cc2)c(C)nn1C` (stereo not shown) | 7.735 |
| 29 | `CC(NC(=O)c1ccsc1)c1ccc2c(c1)NC(=O)CO2` (stereo not shown) | 19.13 |
| 30 | `CCS(=O)(=O)N1CCc2c(cccc2NC(=O)NCCOC)C1` | 20.42 |
| 31 | `COc1ccccc1OCCC(=O)N1CCCCC1c1nccs1` (stereo not shown) | 23.62 |
| 32 | `CN(C)c1cc(C(=O)N2CCCN(c3cccnn3)CC2)ccn1` | 14.71 |
| 33 | `Cc1cc(N2CCc3cnc(C)nc3C2)n2nc(C(F)(F)F)nc2n1` | 19.76 |
| 34 | `Cc1cccc(CN2C[C@@H]3COC[C@]3(CNC(=O)c3ccno3)C2)n1` | 7.19 |
| 35 | `COc1ccc(CN2CCCC2)cc1Oc1cccc(C#N)n1` | 15.97 |
| 36 | `O=C(Nc1ccc(-n2cccn2)cc1)N1CCOCC(O)C1` (stereo not shown) | 14.23 |
| 37 | `O=C(NC[C@H]1OC[C@@H]2CCN(c3ncccn3)C[C@@H]21)c1ccnnc1` | 14.98 |
| 38 | `O=C(Cn1ccc2ccccc21)N1CCC(Oc2ncccc2Br)CC1` | 6.475 |
| 39 | `NC(=O)CNC(=O)c1ccc(CNCc2ccc(Cl)cc2Cl)cc1` | 17.88 |
| 40 | `CN(C)[C@H]1CCCCN(C(=O)CCc2csc(N)n2)C1` | 16.3 |
| 41 | `COCC1CN(C(=O)Nc2cc(Cl)ccc2F)CCO1` (stereo not shown) | 6.983 |
| 42 | `Cc1cccc(CC(=O)N2CCCC(c3n[nH]c4nccnc34)C2)c1` (stereo not shown) | 10.94 |
| 43 | `CCCc1nc(C)cc(N2Cc3cnn(CCO)c3C2)n1` | 6.497 |
| 44 | `Cc1nccc(N2CCCC(C)(c3[nH]ncc3C(N)=O)C2)n1` (stereo not shown) | 17.85 |
| 45 | `CC(C)OCCCNC(=O)c1c(-n2cnnn2)sc2c1CCCC2` | 7.365 |
| 46 | `O=C1N(Cc2cccnc2)C[C@H]2CN(S(=O)(=O)c3ccccc3)CCN12` | 7.519 |
| 47 | `Cc1cc2nc(-c3ccccc3)cc(NCC3CCS(=O)(=O)C3)n2n1` (stereo not shown) | 6.269 |
| 48 | `Cc1cc(C(=O)NC2CCCc3c2cnn3-c2cccc(C)c2C)[nH]n1` (stereo not shown) | 8.908 |
| 49 | `COc1ccccc1N1CCN(C(=O)c2ccoc2)CC1` | 28.57 |
| 50 | `Cc1nn(C)cc1CCC(=O)N1CCCC(n2cncn2)C1` (stereo not shown) | 18.18 |
| 51 | `CCc1nnc(CN(CC)C(=O)C2CC(=O)N(Cc3cccnc3)C2)o1` (stereo not shown) | 16.72 |
| 52 | `CC(NC(=O)NCCCN(C)S(C)(=O)=O)c1cccc(Cl)c1` (stereo not shown) | 13.19 |
| 53 | `CN(CC(=O)NCc1cc2ccccc2o1)S(C)(=O)=O` | 12.33 |
| 54 | `CC(Cn1cccn1)NCc1nc(-c2cccs2)no1` (stereo not shown) | 13.39 |
| 55 | `CNC(=O)c1cn[nH]c1C1(C)CCCN(Cc2ccccn2)C1` (stereo not shown) | 16.72 |
| 56 | `CCN(CC)C(=O)c1ccc(COc2ccccc2C#N)o1` | 7.532 |
| 57 | `Cc1ccc(C2(C(=O)NCCCn3cccn3)CCOCC2)cc1` | -33.92 |
| 58 | `Cc1ccccc1C(=O)N1CCC2(CCC(C(=O)NCC3CC3)O2)CC1` (stereo not shown) | 11.22 |
| 59 | `CC(C)n1ccnc1CN1CCCN(C(=O)CC2CCCO2)CC1` (stereo not shown) | 14.61 |
| 60 | `N#Cc1c(Cl)nsc1NCCCN1C(=O)COc2ccccc21` | 4.348 |
| 61 | `CCCN1CCN(CC(O)c2ccc(OC(F)(F)F)cc2)CC1` (stereo not shown) | 18.1 |
| 62 | `CN(C)c1nc2c(c(=O)[nH]1)Cc1ccccc1OC2` | 3.951 |
| 63 | `CC(C)N1CCC(Cc2cc(-c3ccccc3C(=O)O)ncn2)CC1` | 3.082 |
| 64 | `O=C1CCCN1Cc1nnc2n1CCN(Cc1ccccn1)CC2` | 16.25 |
| 65 | `Cn1ccc(CN2CCC(COC3CCCC3)CC2)cc1=O` | 18.06 |
| 66 | `CCc1nc(C2CCCN2C(=O)CCc2cccs2)no1` (stereo not shown) | 2.857 |
| 67 | `COCCN1C[C@@H]2CN(Cc3ccc(C)s3)CCC[C@]2(C(=O)O)C1` | 2.067 |
| 68 | `Cc1cc(C)nc(NC(C)Cc2cnccn2)n1` (stereo not shown) | 6.03 |
| 69 | `O=C(CN1CCN(c2ccnc3c(F)ccc(F)c23)CC1)N1CCCC1` | 8.179 |
| 70 | `NC1(c2nc(-c3cccs3)cc(=O)[nH]2)CCCCC1` | 3.495 |
| 71 | `CC(C)(O)CCc1cccc(C(=O)N2CCC3(CCO3)CC2)c1` | 18.01 |
| 72 | `O=S1(=O)NCC2(CCCN(Cc3cccnc3)C2)Oc2ncccc21` (stereo not shown) | 4 |
| 73 | `CCCNC(c1ccc(F)cc1)c1cccnc1` (stereo not shown) | 16.27 |
| 74 | `COc1c(C)cnc(CNC(=O)c2cc(C)nc3c2c(C)nn3C)c1C` | 13.74 |
| 75 | `Cc1nc2c(c(NC(C)C)n1)CCN(C1CCOCC1)CC2` | 11.23 |
| 76 | `CC(NC(=O)N1CCS(=O)(=O)CC1)c1ccc(F)cc1Cl` (stereo not shown) | 15.54 |
| 77 | `Cc1ncc(CN2CCCC(O)(c3ccc(F)cc3)CC2)n1C` (stereo not shown) | 12.46 |
| 78 | `CCOCC1CN(Cc2ccc(OC)cc2)Cc2nn(CC3CC3)cc21` (stereo not shown) | 2.594 |
| 79 | `Cc1csc(N2CCN(CC(=O)Nc3cc(C)nn3C)CC2C)n1` (stereo not shown) | 16.83 |
| 80 | `Cc1ccc([C@H]2CN(CCO)C[C@@H]2NC(=O)CN2CCCCC2=O)o1` | 11.78 |
| 81 | `CC(NC(=O)NCc1ccoc1)c1ccc2c(c1)CC(=O)N2` (stereo not shown) | 16.48 |
| 82 | `N[C@H]1CN(C(=O)Cc2cc(F)cc(Cl)c2)C[C@@H]1C1CC1` | 14.03 |
| 83 | `CCOc1ccc(-c2ccc3c(c2)OCO3)cc1C(N)=O` | 11.42 |
| 84 | `Cc1ccc(S(=O)(=O)NC(=O)c2cccc(OCC(N)=O)c2)s1` | 9.859 |
| 85 | `CC(C)C(=O)NCCNC(=O)C(C)OCC(F)(F)F` (stereo not shown) | 8.362 |
| 86 | `O=C(C1CC1)N1CCC2(COCc3cnc(N4CCOCC4)nc32)C1` (stereo not shown) | 21.61 |
| 87 | `COCCCNC(=O)c1cc(C(C)C)nc(N2CCCC2)n1` | -4.774 |
| 88 | `Cc1sc2c(C3CCCN(C)C3)nc(C)n2c1C` (stereo not shown) | -2.572 |
| 89 | `CC(=O)N1CCC2(CC1)CN(C(=O)[C@@H]1CSCN1)c1ccc(Cl)cc12` | 19.23 |
| 90 | `Cn1c(Cl)cnc1CN1CCCC1c1ccc2c(c1)OCCO2` (stereo not shown) | 5.674 |
| 91 | `CC(C)CC(=O)Nc1c(-c2ccc(F)cc2)ncn1C` | 10.29 |
| 92 | `Cc1noc(C2CCC3(CCN(C(=O)c4ncccn4)CC3)O2)n1` (stereo not shown) | 16.24 |

Once more, the final 12:

With CC(NC(=O)NCc1ccoc1)c1ccc2c(c1)CC(=O)N2 (stereo not shown) the screen gave 16.48%.
With N[C@H]1CN(C(=O)Cc2cc(F)cc(Cl)c2)C[C@@H]1C1CC1 the screen gave 14.03%.
With CCOc1ccc(-c2ccc3c(c2)OCO3)cc1C(N)=O the screen gave 11.42%.
With Cc1ccc(S(=O)(=O)NC(=O)c2cccc(OCC(N)=O)c2)s1 the screen gave 9.859%.
With CC(C)C(=O)NCCNC(=O)C(C)OCC(F)(F)F (stereo not shown) the screen gave 8.362%.
With O=C(C1CC1)N1CCC2(COCc3cnc(N4CCOCC4)nc32)C1 (stereo not shown) the screen gave 21.61%.
With COCCCNC(=O)c1cc(C(C)C)nc(N2CCCC2)n1 the screen gave -4.774%.
With Cc1sc2c(C3CCCN(C)C3)nc(C)n2c1C (stereo not shown) the screen gave -2.572%.
With CC(=O)N1CCC2(CC1)CN(C(=O)[C@@H]1CSCN1)c1ccc(Cl)cc12 the screen gave 19.23%.
With Cn1c(Cl)cnc1CN1CCCC1c1ccc2c(c1)OCCO2 (stereo not shown) the screen gave 5.674%.
With CC(C)CC(=O)Nc1c(-c2ccc(F)cc2)ncn1C the screen gave 10.29%.
With Cc1noc(C2CCC3(CCN(C(=O)c4ncccn4)CC3)O2)n1 (stereo not shown) the screen gave 16.24%.

Measurements from “University of Dundee, Small-Polar-MMV Screening Library” (2021), ChEMBL document CHEMBL3988442.